Source: the supplement of paper PMC10849652
Some of the results follow.

Chains of the proteins cited; added tags and fusions are not shown. Lines headed by an entry give the natural chain unless they say otherwise; changes in a name come on top.
UniProt Q5TDH0: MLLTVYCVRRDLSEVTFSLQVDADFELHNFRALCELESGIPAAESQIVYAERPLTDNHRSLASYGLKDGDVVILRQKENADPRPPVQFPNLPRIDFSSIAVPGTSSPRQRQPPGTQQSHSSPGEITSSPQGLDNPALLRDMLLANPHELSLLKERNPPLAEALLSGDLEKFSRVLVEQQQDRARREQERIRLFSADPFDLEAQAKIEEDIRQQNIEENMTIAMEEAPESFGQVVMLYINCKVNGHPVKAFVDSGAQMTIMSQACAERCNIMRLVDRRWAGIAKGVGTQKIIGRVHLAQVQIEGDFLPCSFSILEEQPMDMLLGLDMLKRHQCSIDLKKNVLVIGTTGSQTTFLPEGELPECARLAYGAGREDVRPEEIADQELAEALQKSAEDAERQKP
UniProt Q9BUQ8: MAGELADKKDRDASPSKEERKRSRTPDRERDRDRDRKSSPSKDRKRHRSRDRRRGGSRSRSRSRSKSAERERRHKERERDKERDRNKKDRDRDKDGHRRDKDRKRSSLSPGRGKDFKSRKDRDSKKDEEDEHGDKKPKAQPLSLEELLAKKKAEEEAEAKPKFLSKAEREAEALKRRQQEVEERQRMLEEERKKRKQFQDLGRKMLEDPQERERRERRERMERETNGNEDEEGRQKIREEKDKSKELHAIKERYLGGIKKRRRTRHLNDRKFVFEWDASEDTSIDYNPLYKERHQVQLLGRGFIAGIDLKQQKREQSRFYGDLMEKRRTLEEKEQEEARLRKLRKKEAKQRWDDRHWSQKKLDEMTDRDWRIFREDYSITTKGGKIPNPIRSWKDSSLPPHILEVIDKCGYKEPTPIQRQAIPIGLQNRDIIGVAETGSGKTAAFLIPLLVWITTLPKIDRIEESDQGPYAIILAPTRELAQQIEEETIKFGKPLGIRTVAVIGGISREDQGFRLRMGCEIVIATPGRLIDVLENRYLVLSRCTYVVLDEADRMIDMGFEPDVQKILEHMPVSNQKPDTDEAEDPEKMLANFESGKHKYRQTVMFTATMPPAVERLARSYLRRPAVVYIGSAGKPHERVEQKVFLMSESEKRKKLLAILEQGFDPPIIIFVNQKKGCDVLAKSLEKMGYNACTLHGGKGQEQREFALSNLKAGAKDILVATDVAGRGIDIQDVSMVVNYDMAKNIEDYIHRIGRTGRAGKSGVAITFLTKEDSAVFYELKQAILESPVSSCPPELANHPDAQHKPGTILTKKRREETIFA
UniProt Q13574: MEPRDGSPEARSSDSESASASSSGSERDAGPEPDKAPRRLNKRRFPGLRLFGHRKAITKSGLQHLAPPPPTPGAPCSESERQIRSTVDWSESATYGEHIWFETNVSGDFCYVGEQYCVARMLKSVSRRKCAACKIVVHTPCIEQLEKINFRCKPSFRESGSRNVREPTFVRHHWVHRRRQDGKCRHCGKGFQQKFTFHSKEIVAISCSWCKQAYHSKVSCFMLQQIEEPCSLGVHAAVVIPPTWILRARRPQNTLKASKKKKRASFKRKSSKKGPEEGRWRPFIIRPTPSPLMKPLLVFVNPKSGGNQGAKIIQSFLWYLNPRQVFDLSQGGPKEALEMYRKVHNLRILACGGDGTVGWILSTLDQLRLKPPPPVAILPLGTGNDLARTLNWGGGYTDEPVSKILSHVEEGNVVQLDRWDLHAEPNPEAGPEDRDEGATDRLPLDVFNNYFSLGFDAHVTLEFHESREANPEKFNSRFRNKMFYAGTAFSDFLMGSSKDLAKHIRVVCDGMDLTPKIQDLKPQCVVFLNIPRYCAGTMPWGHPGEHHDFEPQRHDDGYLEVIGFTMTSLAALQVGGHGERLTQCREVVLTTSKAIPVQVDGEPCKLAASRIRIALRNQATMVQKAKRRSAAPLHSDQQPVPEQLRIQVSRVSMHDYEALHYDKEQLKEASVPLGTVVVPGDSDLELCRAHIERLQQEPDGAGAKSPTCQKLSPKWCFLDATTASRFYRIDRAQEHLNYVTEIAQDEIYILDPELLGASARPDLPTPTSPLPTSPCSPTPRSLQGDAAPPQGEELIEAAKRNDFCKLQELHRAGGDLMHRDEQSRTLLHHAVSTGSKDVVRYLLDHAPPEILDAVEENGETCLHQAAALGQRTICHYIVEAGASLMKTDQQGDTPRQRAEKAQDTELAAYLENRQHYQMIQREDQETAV
UniProt Q9NR30: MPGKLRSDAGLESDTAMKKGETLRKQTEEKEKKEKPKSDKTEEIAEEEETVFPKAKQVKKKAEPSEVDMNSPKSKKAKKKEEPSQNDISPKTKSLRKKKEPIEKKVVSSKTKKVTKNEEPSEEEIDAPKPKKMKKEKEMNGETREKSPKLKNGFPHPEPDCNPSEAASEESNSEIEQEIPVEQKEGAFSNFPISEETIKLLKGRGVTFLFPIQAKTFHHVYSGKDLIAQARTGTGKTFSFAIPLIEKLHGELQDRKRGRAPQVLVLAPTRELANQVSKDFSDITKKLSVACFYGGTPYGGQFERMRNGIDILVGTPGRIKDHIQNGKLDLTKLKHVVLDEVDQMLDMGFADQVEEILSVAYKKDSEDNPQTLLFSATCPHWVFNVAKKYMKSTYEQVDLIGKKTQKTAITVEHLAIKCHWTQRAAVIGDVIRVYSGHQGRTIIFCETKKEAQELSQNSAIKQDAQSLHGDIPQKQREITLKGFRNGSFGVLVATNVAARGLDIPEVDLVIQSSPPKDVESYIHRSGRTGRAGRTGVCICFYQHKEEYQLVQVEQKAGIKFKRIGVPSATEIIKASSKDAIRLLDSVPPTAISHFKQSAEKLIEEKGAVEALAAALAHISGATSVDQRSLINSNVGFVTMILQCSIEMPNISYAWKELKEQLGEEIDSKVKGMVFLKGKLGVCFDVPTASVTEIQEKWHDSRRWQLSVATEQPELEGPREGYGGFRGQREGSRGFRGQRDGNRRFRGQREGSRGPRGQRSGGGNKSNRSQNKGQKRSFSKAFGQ
UniProt P00374: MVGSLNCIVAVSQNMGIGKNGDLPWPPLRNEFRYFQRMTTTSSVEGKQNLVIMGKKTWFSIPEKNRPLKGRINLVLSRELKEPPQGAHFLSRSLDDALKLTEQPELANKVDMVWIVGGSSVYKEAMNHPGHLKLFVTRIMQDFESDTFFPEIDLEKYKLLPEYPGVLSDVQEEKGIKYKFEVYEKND
UniProt Q9UNQ2: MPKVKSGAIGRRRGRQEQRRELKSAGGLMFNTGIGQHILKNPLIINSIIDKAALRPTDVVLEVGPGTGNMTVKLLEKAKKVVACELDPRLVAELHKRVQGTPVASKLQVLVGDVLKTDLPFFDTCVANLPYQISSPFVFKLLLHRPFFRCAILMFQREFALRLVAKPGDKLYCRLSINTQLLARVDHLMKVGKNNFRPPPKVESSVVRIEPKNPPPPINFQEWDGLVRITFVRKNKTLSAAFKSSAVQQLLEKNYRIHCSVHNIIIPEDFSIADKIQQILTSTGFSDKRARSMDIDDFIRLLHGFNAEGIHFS
UniProt O76075: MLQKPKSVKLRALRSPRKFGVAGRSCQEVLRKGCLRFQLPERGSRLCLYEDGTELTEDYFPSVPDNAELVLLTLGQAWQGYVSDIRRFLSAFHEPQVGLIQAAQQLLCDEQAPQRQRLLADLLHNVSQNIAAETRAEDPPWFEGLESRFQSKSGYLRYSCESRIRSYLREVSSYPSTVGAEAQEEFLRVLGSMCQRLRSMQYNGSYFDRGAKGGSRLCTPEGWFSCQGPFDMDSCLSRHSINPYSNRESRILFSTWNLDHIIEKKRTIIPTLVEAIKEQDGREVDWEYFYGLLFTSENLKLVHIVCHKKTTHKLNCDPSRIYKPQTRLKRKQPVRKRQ
UniProt P35659: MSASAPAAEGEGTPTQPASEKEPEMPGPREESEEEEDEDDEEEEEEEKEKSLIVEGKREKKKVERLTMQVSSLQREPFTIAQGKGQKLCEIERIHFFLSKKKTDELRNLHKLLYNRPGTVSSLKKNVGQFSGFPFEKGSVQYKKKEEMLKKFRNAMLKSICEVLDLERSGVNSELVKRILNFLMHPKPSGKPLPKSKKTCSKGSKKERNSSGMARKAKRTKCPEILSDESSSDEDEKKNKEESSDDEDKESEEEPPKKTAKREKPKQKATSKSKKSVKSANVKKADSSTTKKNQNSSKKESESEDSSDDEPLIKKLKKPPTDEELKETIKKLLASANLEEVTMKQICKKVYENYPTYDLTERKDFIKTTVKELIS
UniProt Q9H2U1: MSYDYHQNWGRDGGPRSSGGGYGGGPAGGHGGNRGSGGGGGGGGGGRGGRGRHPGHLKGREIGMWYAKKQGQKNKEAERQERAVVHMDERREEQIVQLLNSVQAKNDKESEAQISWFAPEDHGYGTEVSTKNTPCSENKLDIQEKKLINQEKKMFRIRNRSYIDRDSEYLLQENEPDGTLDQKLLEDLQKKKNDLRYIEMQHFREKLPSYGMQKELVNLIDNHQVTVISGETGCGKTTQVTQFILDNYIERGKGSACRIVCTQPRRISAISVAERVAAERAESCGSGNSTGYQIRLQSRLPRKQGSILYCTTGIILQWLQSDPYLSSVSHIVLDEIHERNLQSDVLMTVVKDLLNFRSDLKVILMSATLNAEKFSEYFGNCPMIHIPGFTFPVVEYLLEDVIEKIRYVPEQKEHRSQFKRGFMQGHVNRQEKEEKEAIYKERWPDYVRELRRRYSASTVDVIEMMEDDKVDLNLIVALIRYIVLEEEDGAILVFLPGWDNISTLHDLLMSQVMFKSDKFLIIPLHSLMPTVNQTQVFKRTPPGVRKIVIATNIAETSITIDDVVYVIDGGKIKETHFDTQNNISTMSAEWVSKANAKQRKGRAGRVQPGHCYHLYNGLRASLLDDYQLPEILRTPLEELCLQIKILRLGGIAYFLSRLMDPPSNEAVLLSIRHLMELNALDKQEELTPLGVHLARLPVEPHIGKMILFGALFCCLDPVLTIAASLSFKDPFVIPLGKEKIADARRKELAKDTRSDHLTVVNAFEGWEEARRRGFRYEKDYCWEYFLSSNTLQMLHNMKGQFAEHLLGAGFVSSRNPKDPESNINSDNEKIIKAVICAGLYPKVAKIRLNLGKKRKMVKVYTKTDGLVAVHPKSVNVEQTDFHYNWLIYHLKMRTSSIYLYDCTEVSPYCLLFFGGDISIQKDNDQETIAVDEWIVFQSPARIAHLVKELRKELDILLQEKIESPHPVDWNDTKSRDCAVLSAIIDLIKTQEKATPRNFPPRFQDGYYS
UniProt Q7Z478: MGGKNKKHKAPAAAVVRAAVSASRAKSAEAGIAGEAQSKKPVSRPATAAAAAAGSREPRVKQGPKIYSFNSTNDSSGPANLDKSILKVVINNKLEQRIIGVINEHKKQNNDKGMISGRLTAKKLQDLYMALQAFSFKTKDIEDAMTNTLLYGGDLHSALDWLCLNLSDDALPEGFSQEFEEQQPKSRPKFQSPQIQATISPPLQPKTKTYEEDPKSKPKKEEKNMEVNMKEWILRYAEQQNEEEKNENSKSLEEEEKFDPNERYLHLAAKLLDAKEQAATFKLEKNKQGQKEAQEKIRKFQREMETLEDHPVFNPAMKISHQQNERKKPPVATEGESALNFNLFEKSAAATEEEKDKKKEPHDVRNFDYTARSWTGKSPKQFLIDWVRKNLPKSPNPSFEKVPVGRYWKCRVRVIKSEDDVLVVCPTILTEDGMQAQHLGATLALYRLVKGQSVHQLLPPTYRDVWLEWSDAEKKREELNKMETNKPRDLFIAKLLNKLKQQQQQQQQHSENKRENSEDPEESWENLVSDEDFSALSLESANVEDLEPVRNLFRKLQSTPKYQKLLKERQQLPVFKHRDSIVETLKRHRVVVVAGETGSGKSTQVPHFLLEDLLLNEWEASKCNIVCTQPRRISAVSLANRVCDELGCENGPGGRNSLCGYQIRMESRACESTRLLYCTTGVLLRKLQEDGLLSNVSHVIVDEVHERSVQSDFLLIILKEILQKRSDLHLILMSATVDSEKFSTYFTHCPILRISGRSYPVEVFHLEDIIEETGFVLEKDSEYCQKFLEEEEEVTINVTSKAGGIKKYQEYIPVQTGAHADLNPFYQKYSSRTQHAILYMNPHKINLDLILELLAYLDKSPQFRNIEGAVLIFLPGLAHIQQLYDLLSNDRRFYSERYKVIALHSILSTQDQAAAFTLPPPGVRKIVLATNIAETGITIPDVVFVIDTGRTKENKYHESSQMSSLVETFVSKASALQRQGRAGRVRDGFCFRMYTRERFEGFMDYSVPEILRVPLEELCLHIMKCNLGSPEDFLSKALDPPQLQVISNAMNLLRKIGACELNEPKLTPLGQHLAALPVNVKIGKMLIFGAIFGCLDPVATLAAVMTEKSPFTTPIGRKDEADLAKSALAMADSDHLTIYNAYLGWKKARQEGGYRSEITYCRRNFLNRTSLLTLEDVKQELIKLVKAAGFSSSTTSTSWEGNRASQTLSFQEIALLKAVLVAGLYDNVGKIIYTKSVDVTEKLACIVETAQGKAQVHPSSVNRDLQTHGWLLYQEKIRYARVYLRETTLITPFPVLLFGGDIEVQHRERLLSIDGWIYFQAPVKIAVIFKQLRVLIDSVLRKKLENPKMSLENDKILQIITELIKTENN

Experiments:
Test in all cases: log2 fold change, soluble protein after heating vs DMSO (PISA); higher = thermal stabilisation; K562 cells, 10 uM, 30 min; active = over 0.2 and 3.5 SD of the protein, either way, in both replicates (recomputed)
[1] = compound: CC1=C(C=C(C=C1)NC(=O)C2=CC(=CC=C2)C(C)(C)C#N)NC3=CC4=C(C=C3)N=CN(C4=O)C
How it was run: (§1)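 K562 cells at 2×10^6 cells/mL were treated with 10 μM compound for 30 min. Aliquots were heated for 3 min across 48°C-58°C, pooled, and extracted in PBS with 0.5% NP-40 at 4°C; soluble protein was the supernatant after 21,000xg for 90 min. Soluble protein was quantified by TMTpro 16plex LC-MS/MS with channel sums equalised, and reported as log2 fold change in thermal stability against DMSO controls, with values from duplicates.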

[2] = compound: CC1=C(C=C(C=C1)NC(=O)C2=CC(=CC=C2)N(C)C)NC(=O)C3=CC=C(C=C3)O
How it was run: as §1

[3] = compound: CC1=CC=C(C=C1)SC2=C3C=C(SC3=CN=C2)C(=O)N
How it was run: as §1

[4] = compound: CC1=NC(=CC=C1)C2=C(N=C(N2)C(C)(C)C)C3=CC4=NC=CN=C4C=C3
How it was run: as §1

Nexturastat A = compound: CCCCN(Cc1ccc(C(=O)NO)cc1)C(=O)Nc1ccccc1 [Nexturastat A]
How it was run: as §1

vemurafenib = compound: CCCS(=O)(=O)Nc1ccc(F)c(C(=O)c2c[nH]c3ncc(-c4ccc(Cl)cc4)cc23)c1F [vemurafenib]
How it was run: as §1

[5] = compound: CCCS(=O)(=O)Nc1ccc(F)c(C(=O)c2c[nH]c3ncc(Cl)cc23)c1F
How it was run: as §1

[6] = compound: CCCc1cc(C)[nH]c(=O)c1CNC(=O)c1cc(-c2ccnc(N3CCN(C)CC3)c2)cc2c1cnn2C(C)C
How it was run: as §1

givinostat = compound: CCN(CC)Cc1ccc2cc(COC(=O)Nc3ccc(C(=O)NO)cc3)ccc2c1 [givinostat]
How it was run: as §1

barasertib = compound: CCN(CCCOc1ccc2c(Nc3cc(CC(=O)Nc4cccc(F)c4)[nH]n3)ncnc2c1)CCOP(=O)(O)O [barasertib]
How it was run: as §1

[7] = compound: CC[C@@H]1C(=O)N(C)c2cnc(Nc3ccc(C(=O)NC4CCN(C)CC4)cc3OC)nc2N1C1CCCC1
How it was run: as §1

volasertib = compound: CC[C@@H]1C(=O)N(C)c2cnc(Nc3ccc(C(=O)N[C@H]4CC[C@H](N5CCN(CC6CC6)CC5)CC4)cc3OC)nc2N1C(C)C [volasertib]
How it was run: as §1

[8] = compound: CC[C@H](C)N1C=C(C2=C(C=C(C=C21)C3=CN=C(C=C3)N4CCNCC4)C(=O)NCC5=C(C=C(NC5=O)C)C)C
How it was run: as §1

epoxomicin = compound: CC[C@H](C)[C@@H](C(=O)N[C@@H]([C@@H](C)O)C(=O)N[C@@H](CC(C)C)C(=O)[C@]1(CO1)C)NC(=O)[C@H]([C@@H](C)CC)N(C)C(=O)C [epoxomicin]
How it was run: as §1

[9] = compound: CCn1c(C(=O)N(C2CC2)C2CC2)cc2c3c(ncn3C)c(Nc3cc(C)n(C)n3)nc21
How it was run: as §1

[10] = compound: CCn1cc(-c2ccnc3[nH]c(-c4cccc(CN(C)C)c4)cc23)c(-c2ccc(NC(=O)N(C)C)cc2)n1
How it was run: as §1

[11] = compound: CN(C)CC(=O)Nc1ccc2[nH]c(=O)c3ccccc3c2c1
How it was run: as §1

rosiglitazone = compound: CN(CCOC1=CC=C(C=C1)C[C@H]2C(=O)NC(=O)S2)C3=CC=CC=N3 (racemic) [rosiglitazone]
How it was run: as §1

[12] = compound: CN1C2=C(C3=C1C(=O)N(N=C3)CC4=CC(=CC=C4)N)SC(=C2)S(=O)C
How it was run: as §1

[13] = compound: CN1CCC(CNc2ccc3ncc(-c4cccc(OC(F)(F)F)c4)n3n2)CC1
How it was run: as §1

Measured: log2 fold change

DDX19A (UniProt Q9NUU7)
inactive: [1] -0.031 | [2] -0.034 | [3] 0.023 | [4] 0.014 | Nexturastat A 0.032 | vemurafenib 0.014 | [5] 0.142 | [6] 0.009 | givinostat 0.023 | barasertib 0.016 | [7] -0.074 | volasertib -0.244 | [8] 0.036 | epoxomicin 0.025 | [9] 0.034 | [10] 0.002 | [11] 0.003 | rosiglitazone 0.022 | [12] -0.05 | [13] -0.069

DDI2 isoform 3 (UniProt Q5TDH0)
inactive: [1] -0.004 | [2] -0.012 | [3] -0.008 | [4] 0.008 | Nexturastat A 0.004 | vemurafenib 0.032 | [5] 0.012 | [6] 0.001 | givinostat -0.013 | barasertib 0.008 | [7] -0.004 | volasertib -0.006 | [8] 0.007 | epoxomicin -0.032 | [9] 0.024 | [10] -0.085 | [11] -0.009 | rosiglitazone 0.02 | [12] -0.075 | [13] 0.028

DHODH (UniProt Q02127)
inactive: [1] 0.007 | [2] -0.006 | [3] -0.042 | [4] -0.009 | Nexturastat A -0.014 | vemurafenib -0.035 | [5] -0.064 | [6] -0.026 | givinostat -0.017 | barasertib -0.016 | [7] 0.019 | volasertib 0.067 | [8] -0.037 | epoxomicin 0.023 | [9] 0.012 | [10] -0.006 | [11] -0.017 | rosiglitazone 0.013 | [12] -0.041 | [13] 0.022

DDX23 (UniProt Q9BUQ8)
inactive: [1] 0.109 | [2] 0.035 | [3] -0.173 | [4] -0.079 | Nexturastat A 0.253 | vemurafenib -0.064 | [5] -0.012 | [6] 0.038 | givinostat 0.072 | barasertib -0.089 | [7] 0.157 | volasertib 0.239 | [8] 0.006 | epoxomicin -0.122 | [9] -0.063 | [10] 0.207 | [11] -0.07 | rosiglitazone -0.145 | [12] 0.228 | [13] 0.336

DGKZ (UniProt Q13574)
inactive: [1] 0.068 | [2] 0.023 | [3] -0.051 | [4] 0 | Nexturastat A 0.031 | vemurafenib -0.003 | [5] -0.034 | [6] -0.016 | givinostat 0.084 | barasertib -0.029 | [7] 0.014 | volasertib -0.038 | [8] 0.005 | epoxomicin 0.083 | [9] 0.003 | [10] 0.087 | [11] 0.083 | rosiglitazone 0.004 | [12] 0.043 | [13] 0.065

DDX21 (UniProt Q9NR30)
inactive: [1] -0.004 | [2] -0.051 | [3] -0.092 | [4] 0.035 | Nexturastat A 0.285 | vemurafenib -0.064 | [5] 0.167 | [6] 0.149 | givinostat 0.194 | barasertib -0.02 | [7] 0.036 | volasertib 0.145 | [8] 0.005 | epoxomicin -0.122 | [9] 0.022 | [10] 0.161 | [11] -0.047 | rosiglitazone -0.086 | [12] 0.328 | [13] 0.2

2 entries drawn at random from those above, as already listed:
DDX21 (UniProt Q9NR30)
inactive: [1] -0.004 | [2] -0.051 | [3] -0.092 | [4] 0.035 | Nexturastat A 0.285 | vemurafenib -0.064 | [5] 0.167 | [6] 0.149 | givinostat 0.194 | barasertib -0.02 | [7] 0.036 | volasertib 0.145 | [8] 0.005 | epoxomicin -0.122 | [9] 0.022 | [10] 0.161 | [11] -0.047 | rosiglitazone -0.086 | [12] 0.328 | [13] 0.2

DGKZ (UniProt Q13574)
inactive: [1] 0.068 | [2] 0.023 | [3] -0.051 | [4] 0 | Nexturastat A 0.031 | vemurafenib -0.003 | [5] -0.034 | [6] -0.016 | givinostat 0.084 | barasertib -0.029 | [7] 0.014 | volasertib -0.038 | [8] 0.005 | epoxomicin 0.083 | [9] 0.003 | [10] 0.087 | [11] 0.083 | rosiglitazone 0.004 | [12] 0.043 | [13] 0.065

(further entries)

DHX38 (UniProt Q92620)
inactive: [1] -0.01 | [2] 0.022 | [3] -0.035 | [4] -0.002 | Nexturastat A -0.001 | vemurafenib -0.014 | [5] 0.002 | [6] 0.007 | givinostat -0.027 | barasertib 0.01 | [7] 0.039 | volasertib -0.02 | [8] 0.01 | epoxomicin -0.007 | [9] 0.018 | [10] 0.003 | [11] -0.009 | rosiglitazone 0.008 | [12] -0.072 | [13] 0.03

DHFR (UniProt P00374)
inactive: [1] -0.069 | [2] 0.003 | [3] -0.086 | [4] -0.074 | Nexturastat A 0.232 | vemurafenib 0.044 | [5] 0.001 | [6] 0.17 | givinostat 0.162 | barasertib 0.068 | [7] 0.002 | volasertib -0.11 | [8] 0.088 | epoxomicin -0.013 | [10] -0.077 | [11] 0.091 | [12] 0.113
active: [13] 1.64

DENND4C isoform 7 (UniProt Q5VZ89)
inactive: [1] 0.098 | [2] 0 | [3] 0.038 | [4] -0.036 | Nexturastat A 0.05 | vemurafenib 0.058 | [5] 0.045 | [6] -0.019 | givinostat 0.115 | barasertib 0.027 | [7] 0.025 | volasertib -0.135 | [8] 0.186 | epoxomicin -0.038 | [9] -0.123 | [10] -0.031 | [11] 0.081 | rosiglitazone 0.148 | [12] 0.115 | [13] -0.171

DIMT1 (UniProt Q9UNQ2)
inactive: [1] 0.013 | [2] -0.025 | [3] -0.038 | [4] -0.087 | Nexturastat A 0.216 | vemurafenib -0.092 | [5] -0.017 | [6] 0.081 | givinostat -0.007 | barasertib -0.127 | [7] 0.171 | volasertib 0.261 | [8] -0.015 | epoxomicin -0.208 | [9] 0.01 | [10] 0.124 | [11] -0.106 | rosiglitazone -0.113 | [12] 0.2 | [13] 0.174

DDX4 (UniProt Q9NQI0)
inactive: [1] -0.451 | [2] 0.035 | [3] -0.328 | [4] -0.336 | Nexturastat A 0.263 | vemurafenib -0.569 | [5] -0.447 | [6] 0.327 | givinostat 0.271 | barasertib -0.094 | [7] 0.139 | volasertib -0.006 | [8] 0.067 | epoxomicin -0.113 | [10] 0.047 | [11] -0.414 | [12] 0.025 | [13] -0.844

DFFB (UniProt O76075)
inactive: [1] -0.023 | [2] -0.013 | [3] 0.013 | [4] 0.019 | Nexturastat A -0.04 | vemurafenib 0.055 | [5] 0 | [6] -0.109 | givinostat -0.059 | barasertib 0.034 | [7] 0.049 | volasertib 0.036 | [8] 0.104 | epoxomicin 0.039 | [10] 0.028 | [11] -0.036 | [12] -0.074 | [13] -0.01

DEK (UniProt P35659)
inactive: [1] 0.057 | [2] -0.038 | [3] 0.067 | [4] 0.095 | Nexturastat A -0.011 | vemurafenib 0.089 | [5] 0.129 | [6] 0.035 | givinostat 0.026 | barasertib 0.011 | [7] -0.057 | volasertib -0.143 | [8] 0.102 | epoxomicin 0.069 | [9] -0.047 | [10] -0.045 | [11] 0.067 | rosiglitazone 0.04 | [12] 0.019 | [13] -0.153

DHX36 (UniProt Q9H2U1)
inactive: [1] 0.015 | [2] 0 | [3] -0.034 | [4] -0.033 | Nexturastat A 0.111 | vemurafenib 0.012 | [5] 0.02 | [6] -0.005 | givinostat -0.031 | barasertib -0.064 | [7] 0.11 | volasertib 0.059 | [8] 0.002 | epoxomicin -0.032 | [10] 0.032 | [11] -0.032 | [12] 0.086 | [13] -0.027

DHX29 (UniProt Q7Z478)
inactive: [1] 0.025 | [2] -0.013 | [3] -0.097 | [4] -0.117 | Nexturastat A 0.141 | vemurafenib -0.034 | [5] 0.002 | [6] 0.059 | givinostat 0.04 | barasertib -0.102 | [7] 0.082 | volasertib 0.029 | [8] 0.045 | epoxomicin -0.176 | [9] 0.01 | [10] 0.038 | [11] -0.008 | rosiglitazone -0.069 | [12] 0.141 | [13] 0.13
